PubChem BioAssay AID504804, Drosophila RNAi Screening Center, 2011
The deposit covers about 19,000 reagents; shown is a random part of those that have a named target and a result. Over the whole deposit, 47 (0.25%) were called active. 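Signals are raw, not normalised; exact z-scores behind calls not deposited; actives needed confirmation, so some wells reaching 2 SD are inactive.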 A plus sign joins genes that one reagent is predicted to hit.

Assay: 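Fly genes whose loss lessens doxorubicin-driven cell death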 (primary screen)
System: Drosophila Kc cells
Reagents: long dsRNA against Drosophila genes, 0.5 µg dsRNA per well
Time to read-out: 96 h (48 h knock-down, then 48 h drug)
Conditions: doxorubicin 5 µg/ml for 48 h, added 48 h after dsRNA
Measured: 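Luminescent ATP counts per replicate, not normalised, reflecting viable cells after 48 h dsRNA knock-down followed by 48 h of 5 µg/ml doxorubicin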
Scale: raw ATP luminescence: higher = more viable cells, protection from doxorubicin
Call rule: 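z-score of 2 or more over plate mean in both duplicates, retained only when retests and separate dsRNAs confirm the protection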

gene | amplicon | raw ATP luminescence, replicate 1 | raw ATP luminescence, replicate 2 | activity call
Debcl | DRSC04965 | 59753 | 61320 | inactive
Ada | DRSC14463 | 54443 | 63737 | inactive
thoc5 | DRSC04327 | 92167 | 62523 | inactive
CG6321 | DRSC10623 | 38340 | 33870 | inactive
beta4GalNAcTA | DRSC05944 | 2.13e5 | 2.27e5 | inactive
IFT46 | DRSC02462 | 45473 | 43203 | inactive
CG42542 | DRSC15549 | 60547 | 19040 | inactive
Drl-2 | DRSC05393 | 65090 | 76053 | inactive
CG30127 (retired record) | DRSC05785 | 1.11e5 | 81010 | inactive
CG30127 (retired record) | DRSC05786 | 1.18e5 | 65517 | inactive
Dsp1 | DRSC20315 | 33430 | 36790 | inactive
KFase | DRSC03258 | 28783 | 28010 | inactive
GstD6 | DRSC16687 | 48623 | 56763 | inactive
CG30183 | DRSC04450 | 51013 | 53573 | inactive
CG30183 | DRSC04472 | 55707 | 52560 | inactive
Nep1 | DRSC18389 | 15290 | 17590 | inactive
CG15429 | DRSC00444 | 20083 | 21213 | inactive
Lcp65Ad | DRSC11211 | 91387 | 89910 | inactive
HDAC3 | DRSC12352 | 52617 | 30333 | inactive
CG8176 | DRSC16394 | 64380 | 62293 | inactive
CheB53b | DRSC05613 | 1.70e5 | 1.26e5 | inactive
CG1850 | DRSC06762 | 48630 | 73243 | inactive
CG14085 | DRSC10089 | 73677 | 74287 | inactive
odd | DRSC00832 | 9297 | 11723 | inactive
shams | DRSC16590 | 62350 | 65630 | inactive
Arpc3B | DRSC20126 | 2.11e5 | 1.65e5 | inactive
Osi17 | DRSC12284 | 63203 | 69160 | inactive
CG31673 | DRSC03207 | 76643 | 72380 | inactive
MCU | DRSC10339 | 84530 | 82223 | inactive
CG6550 | DRSC07001 | 65130 | 35100 | inactive
cactin | DRSC20576 | 3.79e5 | 4.71e5 | inactive
blot | DRSC09485 | 92983 | 91340 | inactive
blot | DRSC11328 | 32453 | 24073 | inactive
CG13003 | DRSC19522 | 3.39e5 | 3.20e5 | inactive
CG43707 | DRSC00280 | 25220 | 39020 | inactive
CG3270 | DRSC04988 | 65440 | 73850 | inactive
CG14877 | DRSC15001 | 73860 | 1.07e5 | inactive
CG17249 | DRSC08517 | 53750 | 64110 | inactive
Mmp2 | DRSC06698 | 41710 | 68687 | inactive
amrt | DRSC19378 | 2.67e5 | 2.99e5 | inactive
HemK1 | DRSC03253 | 79063 | 69463 | inactive
SmydA-5 | DRSC04867 | 38747 | 47963 | inactive
CG13614 | DRSC14617 | 62700 | 62220 | inactive
Fbp2 | DRSC03327 | 86880 | 55430 | inactive
CG15642 | DRSC19678 | 3.15e5 | 3.10e5 | inactive
wtrw | DRSC14241 | 33213 | 37827 | inactive
wtrw | DRSC15278 | 62533 | 55663 | inactive
Ostgamma | DRSC03074 | 1.11e5 | 73913 | inactive
CG31482 | DRSC12582 | 56373 | 57163 | inactive
CG14441 | DRSC17934 | 16320 | 20620 | inactive
Shrm | DRSC07221 | 64613 | 67097 | inactive
Gr59b | DRSC04179 | 48367 | 69693 | inactive
CG7299 | DRSC03043 | 49417 | 80733 | inactive
CG15167 | DRSC02468 | 51980 | 58697 | inactive
CG32437 | DRSC11760 | 61043 | 59303 | inactive
Cp19 | DRSC11121 | 88313 | 82067 | inactive
CG6966 | DRSC16156 | 61810 | 78370 | inactive
Vha55 | DRSC16896 | 57563 | 18533 | inactive
CG15923 | DRSC15129 | 35840 | 37573 | inactive
Srrm1 | DRSC09835 | 83163 | 70387 | inactive
CG17715 | DRSC11950 | 69803 | 68783 | inactive
lmgA + lmgB | DRSC03566 | 42737 | 81387 | inactive
CG11134 | DRSC19384 | 1.59e5 | 2.09e5 | inactive
dpr18 | DRSC19606 | 4.00e5 | 3.43e5 | inactive
Cpr65Aw | DRSC08794 | 1.29e5 | 99483 | inactive
CG31709 | DRSC01081 | 3.04e5 | 3.39e5 | inactive
Tsp29Fa | DRSC03232 | 36680 | 72137 | inactive
PK1-R | DRSC16577 | 1.02e5 | 67910 | inactive
Torsin | DRSC18570 | 1.57e5 | 1.57e5 | inactive
CG15864 | DRSC15122 | 57637 | 56897 | inactive
Dnaaf4 | DRSC02405 | 47870 | 70653 | inactive
CG31515 | DRSC13610 | 2.56e5 | 2.31e5 | inactive
CG4763 | DRSC04009 | 1.20e5 | 97477 | inactive
CG4763 | DRSC04487 | 80410 | 76163 | inactive
Hsp70Aa + Hsp70Bb + Hsp70Ba + 3 more | DRSC15380 | 54680 | 36117 | inactive
Ndae1 | DRSC00975 | 2.44e5 | 2.35e5 | inactive
Ndae1 | DRSC02770 | 1.20e5 | 77100 | inactive
CG15721 | DRSC19688 | 3.32e5 | 2.84e5 | inactive
CG6138 | DRSC02933 | 51043 | 58633 | inactive
CG14830 | DRSC08876 | 1.66e5 | 1.34e5 | inactive
CG14830 | DRSC10200 | 81617 | 70223 | inactive
CG17683 | DRSC21160 | 4.08e5 | 3.65e5 | inactive
RpL36A | DRSC03055 | 34763 | 39850 | inactive
mRpL42 | DRSC06235 | 35703 | 79377 | inactive

Sorted by “raw ATP luminescence, replicate 2” (lowest first): 4 of the entries above.
gene | amplicon | raw ATP luminescence, replicate 1 | raw ATP luminescence, replicate 2 | activity call
Nep1 | DRSC18389 | 15290 | 17590 | inactive
CG15429 | DRSC00444 | 20083 | 21213 | inactive
CG30183 | DRSC04472 | 55707 | 52560 | inactive
CG30183 | DRSC04450 | 51013 | 53573 | inactive
